Data from publication PMC10830484.
No constants are given. Whether binding was seen depends on the method and setting. For some of these results: Binding seen in cells or lysates may run through a third protein. Some results given as binding are weak or reduced against the parent protein; the word gives no strength. Where a sequence is shown, tags or fusion partners need not be part of it.

Chains of the proteins cited; added tags and fusions are not shown.
UniProt Q96NA2: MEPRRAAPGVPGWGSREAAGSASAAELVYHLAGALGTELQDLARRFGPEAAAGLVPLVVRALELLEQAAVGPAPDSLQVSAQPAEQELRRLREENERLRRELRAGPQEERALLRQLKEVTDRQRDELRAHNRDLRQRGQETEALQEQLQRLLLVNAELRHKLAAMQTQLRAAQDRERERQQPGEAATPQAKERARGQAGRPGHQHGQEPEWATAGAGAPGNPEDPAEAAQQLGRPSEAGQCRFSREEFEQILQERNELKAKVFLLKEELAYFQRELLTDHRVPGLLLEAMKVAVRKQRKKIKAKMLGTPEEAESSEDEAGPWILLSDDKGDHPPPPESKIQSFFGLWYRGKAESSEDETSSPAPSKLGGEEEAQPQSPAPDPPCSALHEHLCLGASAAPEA
UniProt Q92930: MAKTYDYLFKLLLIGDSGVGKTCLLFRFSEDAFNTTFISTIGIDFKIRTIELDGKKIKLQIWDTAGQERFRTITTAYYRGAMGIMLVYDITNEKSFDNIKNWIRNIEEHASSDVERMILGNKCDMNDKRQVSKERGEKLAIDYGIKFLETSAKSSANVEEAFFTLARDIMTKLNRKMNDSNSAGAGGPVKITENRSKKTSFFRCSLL
UniProt P61006: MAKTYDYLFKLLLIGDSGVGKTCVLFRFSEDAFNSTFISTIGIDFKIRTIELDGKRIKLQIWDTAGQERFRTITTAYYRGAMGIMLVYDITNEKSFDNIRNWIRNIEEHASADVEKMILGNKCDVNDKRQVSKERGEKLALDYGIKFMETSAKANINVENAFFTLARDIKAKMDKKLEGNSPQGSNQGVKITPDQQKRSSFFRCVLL
UniProt P62491: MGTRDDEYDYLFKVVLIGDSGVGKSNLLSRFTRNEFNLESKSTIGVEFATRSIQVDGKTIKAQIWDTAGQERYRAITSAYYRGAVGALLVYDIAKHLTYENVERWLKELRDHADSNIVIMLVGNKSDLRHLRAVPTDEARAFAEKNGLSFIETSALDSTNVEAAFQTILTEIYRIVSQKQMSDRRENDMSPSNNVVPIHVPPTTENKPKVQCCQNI

T1: mito-mScarlet-DENND6A (human) (UniProt Q8IWF6)
T1 sequence: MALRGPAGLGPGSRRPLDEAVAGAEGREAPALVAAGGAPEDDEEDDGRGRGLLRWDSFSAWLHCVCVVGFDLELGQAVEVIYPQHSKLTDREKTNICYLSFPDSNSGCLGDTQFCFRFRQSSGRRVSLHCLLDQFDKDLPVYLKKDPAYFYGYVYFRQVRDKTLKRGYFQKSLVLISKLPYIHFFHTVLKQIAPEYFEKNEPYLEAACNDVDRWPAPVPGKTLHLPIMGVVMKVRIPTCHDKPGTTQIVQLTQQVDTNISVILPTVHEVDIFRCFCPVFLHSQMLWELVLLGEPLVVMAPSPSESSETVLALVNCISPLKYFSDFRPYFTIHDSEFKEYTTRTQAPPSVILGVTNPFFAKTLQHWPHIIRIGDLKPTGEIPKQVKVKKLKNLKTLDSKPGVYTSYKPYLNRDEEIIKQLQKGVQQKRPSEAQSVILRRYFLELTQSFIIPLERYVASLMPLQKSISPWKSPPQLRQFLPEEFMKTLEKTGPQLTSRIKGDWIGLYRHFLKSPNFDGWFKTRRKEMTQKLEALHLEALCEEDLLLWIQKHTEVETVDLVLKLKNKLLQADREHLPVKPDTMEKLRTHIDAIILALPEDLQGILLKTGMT

T2: DENND6A-GFP (human) (UniProt Q8IWF6)
T2 sequence: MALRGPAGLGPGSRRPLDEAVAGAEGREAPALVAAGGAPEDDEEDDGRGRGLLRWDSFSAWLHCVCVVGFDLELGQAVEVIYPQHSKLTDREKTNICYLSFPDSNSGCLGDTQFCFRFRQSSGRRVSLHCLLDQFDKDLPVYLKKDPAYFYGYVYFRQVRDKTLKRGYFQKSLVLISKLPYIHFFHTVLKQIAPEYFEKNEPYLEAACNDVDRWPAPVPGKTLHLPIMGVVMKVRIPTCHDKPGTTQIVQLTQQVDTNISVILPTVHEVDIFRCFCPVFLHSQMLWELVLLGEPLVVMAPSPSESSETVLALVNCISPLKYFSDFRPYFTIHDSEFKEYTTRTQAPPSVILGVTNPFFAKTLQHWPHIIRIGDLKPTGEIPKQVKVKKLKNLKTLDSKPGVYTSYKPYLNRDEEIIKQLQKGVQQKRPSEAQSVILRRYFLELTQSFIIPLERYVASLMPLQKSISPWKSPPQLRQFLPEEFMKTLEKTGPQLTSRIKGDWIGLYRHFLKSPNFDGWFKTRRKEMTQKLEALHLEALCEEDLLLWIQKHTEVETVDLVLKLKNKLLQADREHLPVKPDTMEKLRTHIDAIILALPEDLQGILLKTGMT

T3: GST-Rab34-T66N (UniProt Q9BZG1)
T3 sequence: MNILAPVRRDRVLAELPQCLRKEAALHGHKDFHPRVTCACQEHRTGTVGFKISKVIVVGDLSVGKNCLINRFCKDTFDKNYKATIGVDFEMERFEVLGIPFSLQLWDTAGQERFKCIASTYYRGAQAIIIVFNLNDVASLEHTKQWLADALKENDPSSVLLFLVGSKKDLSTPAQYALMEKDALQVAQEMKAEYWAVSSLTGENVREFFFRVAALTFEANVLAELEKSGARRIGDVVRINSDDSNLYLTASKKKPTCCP


What was measured:
[1] = target: T1, mito-mScarlet-DENND6A (human); assay: recruitment to mitochondria in cells (imaging); HeLa cells cotransfected with individual GFP-Rabs and mito-mScarlet-DENND6A or mito-mScarlet, fixed at 24 hours; localization of GFP-Rabs at the mitochondria judged by eye (Opera Phenix, hits confirmed on Leica SP8)
DENND6A-GFP (human) = target: T2, DENND6A-GFP (human); assay: co-IP; co-immunoprecipitation with DENND6A (Supplementary Fig. 8)
T7-RILP = T7-RILP (UniProt Q96NA2); assay: pull-down; T7-RILP coupled to T7 tag antibody agarose beads, incubated with lysates of HEK-293T cells expressing DENND6A-GFP (or GFP) for 1 hour at 4 °C; 20 mM Hepes, 100 mM NaCl, 20 mM MgCl2, 1 mM dithiothreitol, 1% Triton X-100, pH 7.4; immunoblot with anti-GFP, anti-DIC, anti-Rab34; only the target …
GST-Rab34-T66N = target: T3, GST-Rab34-T66N; assay: pull-down; GST fusion proteins precoupled to glutathione-Sepharose beads, incubated with lysates of HEK-293T cells expressing DENND6A-GFP for 1 hour at 4 °C; 20 mM Hepes, 100 mM NaCl, 20 mM MgCl2, 1 mM dithiothreitol, 1% Triton X-100, pH 7.4; immunoblot with anti-GFP; only the target purified

Row | Molecule | binding [1] | other results
1 | GFP-Rab8B (from UniProt Q92930 1-207) | binds | 
2 | dynactin (p150) (from UniProt Q14203-1 1-1278) |  | binding (DENND6A-GFP (human)): binds
3 | GFP-Rab8A (from UniProt P61006 1-207) | binds | 
4 | RILP (from UniProt Q96NA2 1-401) |  | binding (DENND6A-GFP (human)): binds
5 | GFP-Rab11A (from UniProt P62491 1-216) | binds | 
6 | GFP-Rab3B (protein, UniProt P20337 1-219) MASVTDGKTGVKDASDQNFDYMFKLLIIGNSSVGKTSFLFRYADDTFTPAFVSTVGIDFKVKTVYRHEKRVKLQIWDTAGQERYRTITTAYYRGAMGFILMYDITNEESFNAVQDWATQIKTYSWDNAQVILVGNKCDMEEERVVPTEKGQLLAEQLGFDFFEASAKENISVRQAFERLVDAICDKMSDSLDTDPSMLGSSKNTRLSDTPPLLQQNCSC | binds | 
7 | GFP-Rab4B (protein, UniProt P61018 1-213) MAETYDFLFKFLVIGSAGTGKSCLLHQFIENKFKQDSNHTIGVEFGSRVVNVGGKTVKLQIWDTAGQERFRSVTRSYYRGAAGALLVYDITSRETYNSLAAWLTDARTLASPNIVVILCGNKKDLDPEREVTFLEASRFAQENELMFLETSALTGENVEEAFLKCARTILNKIDSGELDPERMGSGIQYGDASLRQLRQPRSAQAVAPQPCGC | binds | 
8 | GFP-Rab30 (protein, UniProt Q15771 1-203) MSMEDYDFLFKIVLIGNAGVGKTCLVRRFTQGLFPPGQGATIGVDFMIKTVEINGEKVKLQIWDTAGQERFRSITQSYYRSANALILTYDITCEESFRCLPEWLREIEQYASNKVITVLVGNKIDLAERREVSQQRAEEFSEAQDMYYLETSAKESDNVEKLFLDLACRLISEARQNTLVNNVSSPLPGEGKSISYLTCCNFN | binds | 
9 | GFP-Rab22A (protein, UniProt Q9UL26 1-194) MALRELKVCLLGDTGVGKSSIVWRFVEDSFDPNINPTIGASFMTKTVQYQNELHKFLIWDTAGQERFRALAPMYYRGSAAAIIVYDITKEETFSTLKNWVKELRQHGPPNIVVAIAGNKCDLIDVREVMERDAKDYADSIHAIFVETSAKNAININELFIEISRRIPSTDANLPSGGKGFKLRRQPSEPKRSCC | binds | 
10 | GFP-Rab19 (protein, UniProt A4D1S5 1-217) MHFSSSARAADENFDYLFKIILIGDSNVGKTCVVQHFKSGVYTETQQNTIGVDFTVRSLDIDGKKVKMQVWDTAGQERFRTITQSYYRSAHAAIIAYDLTRRSTFESIPHWIHEIEKYGAANVVIMLIGNKCDLWEKRHVLFEDACTLAEKYGLLAVLETSAKESKNIEEVFVLMAKELIARNSLHLYGESALNGLPLDSSPVLMAQGPSEKTHCTC | binds | 
11 | DENND6A-GFP (protein, UniProt Q8IWF6 1-608) MALRGPAGLGPGSRRPLDEAVAGAEGREAPALVAAGGAPEDDEEDDGRGRGLLRWDSFSAWLHCVCVVGFDLELGQAVEVIYPQHSKLTDREKTNICYLSFPDSNSGCLGDTQFCFRFRQSSGRRVSLHCLLDQFDKDLPVYLKKDPAYFYGYVYFRQVRDKTLKRGYFQKSLVLISKLPYIHFFHTVLKQIAPEYFEKNEPYLEAACNDVDRWPAPVPGKTLHLPIMGVVMKVRIPTCHDKPGTTQIVQLTQQVDTNISVILPTVHEVDIFRCFCPVFLHSQMLWELVLLGEPLVVMAPSPSESSETVLALVNCISPLKYFSDFRPYFTIHDSEFKEYTTRTQAPPSVILGVTNPFFAKTLQHWPHIIRIGDLKPTGEIPKQVKVKKLKNLKTLDSKPGVYTSYKPYLNRDEEIIKQLQKGVQQKRPSEAQSVILRRYFLELTQSFIIPLERYVASLMPLQKSISPWKSPPQLRQFLPEEFMKTLEKTGPQLTSRIKGDWIGLYRHFLKSPNFDGWFKTRRKEMTQKLEALHLEALCEEDLLLWIQKHTEVETVDLVLKLKNKLLQADREHLPVKPDTMEKLRTHIDAIILALPEDLQGILLKTGMT |  | binding (T7-RILP): binds; binding (GST-Rab34-T66N): binds
12 | GFP-Rab3D (protein, UniProt O95716 1-219) MASAGDTQAGPRDAADQNFDYMFKLLLIGNSSVGKTSFLFRYADDSFTPAFVSTVGIDFKVKTVYRHDKRIKLQIWDTAGQERYRTITTAYYRGAMGFLLMYDIANQESFAAVQDWATQIKTYSWDNAQVILVGNKCDLEDERVVPAEDGRRLADDLGFEFFEASAKENINVKQVFERLVDVICEKMNESLEPSSSSGSNGKGPAVGDAPAPQPSSCSC | binds | 
13 | GFP-Rab25 (protein, UniProt P57735 1-213) MGNGTEEDYNFVFKVVLIGESGVGKTNLLSRFTRNEFSHDSRTTIGVEFSTRTVMLGTAAVKAQIWDTAGLERYRAITSAYYRGAVGALLVFDLTKHQTYAVVERWLKELYDHAEATIVVMLVGNKSDLSQAREVPTEEARMFAENNGLLFLETSALDSTNVELAFETVLKEIFAKVSKQRQNSIRTNAITLGSAQAGQEPGPGEKRACCISL | binds | 
14 | GFP-Rab3C (protein, UniProt Q96E17 1-227) MRHEAPMQMASAQDARYGQKDSSDQNFDYMFKLLIIGNSSVGKTSFLFRYADDSFTSAFVSTVGIDFKVKTVFKNEKRIKLQIWDTAGQERYRTITTAYYRGAMGFILMYDITNEESFNAVQDWSTQIKTYSWDNAQVILVGNKCDMEDERVISTERGQHLGEQLGFEFFETSAKDNINVKQTFERLVDIICDKMSESLETDPAITAAKQNTRLKETPPPPQPNCAC | binds | 
15 | Rab34 (protein, UniProt Q9BZG1 1-259) MNILAPVRRDRVLAELPQCLRKEAALHGHKDFHPRVTCACQEHRTGTVGFKISKVIVVGDLSVGKTCLINRFCKDTFDKNYKATIGVDFEMERFEVLGIPFSLQLWDTAGQERFKCIASTYYRGAQAIIIVFNLNDVASLEHTKQWLADALKENDPSSVLLFLVGSKKDLSTPAQYALMEKDALQVAQEMKAEYWAVSSLTGENVREFFFRVAALTFEANVLAELEKSGARRIGDVVRINSDDSNLYLTASKKKPTCCP |  | binding (T7-RILP): binds; binding (DENND6A-GFP (human)): binds
16 | GFP-Rab22B (protein, UniProt Q13636 1-195) MMAIRELKVCLLGDTGVGKSSIVCRFVQDHFDHNISPTIGASFMTKTVPCGNELHKFLIWDTAGQERFHSLAPMYYRGSAAAVIVYDITKQDSFYTLKKWVKELKEHGPENIVMAIAGNKCDLSDIREVPLKDAKEYAESIGAIVVETSAKNAINIEELFQGISRQIPPLDPHENGNNGTIKVEKPTMQASRRCC | binds | 

More lines, main results first:

Row | binding [1] | Molecule | other results
17 | binds | GFP-Rab43 (protein, UniProt Q86YS6 1-212) MAGPGPGPGDPDEQYDFLFKLVLVGDASVGKTCVVQRFKTGAFSERQGSTIGVDFTMKTLEIQGKRVKLQIWDTAGQERFRTITQSYYRSANGAILAYDITKRSSFLSVPHWIEDVRKYAGSNIVQLLIGNKSDLSELREVSLAEAQSLAEHYDILCAIETSAKDSSNVEEAFLRVATELIMRHGGPLFSEKSPDHIQLNSKDIGEGWGCGC | 
18 | binds | GFP-Rab39A (protein, UniProt Q14964 1-217) METIWIYQFRLIVIGDSTVGKSCLLHRFTQGRFPGLRSPACDPTVGVDFFSRLLEIEPGKRIKLQLWDTAGQERFRSITRSYYRNSVGGFLVFDITNRRSFEHVKDWLEEAKMYVQPFRIVFLLVGHKCDLASQRQVTREEAEKLSADCGMKYIETSAKDATNVEESFTILTRDIYELIKKGEICIQDGWEGVKSGFVPNTVHSSEEAVKPRKECFC | 
19 | binds | GFP-Rab32 (protein, UniProt Q13637 1-225) MAGGGAGDPGLGAAAAPAPETREHLFKVLVIGELGVGKTSIIKRYVHQLFSQHYRATIGVDFALKVLNWDSRTLVRLQLWDIAGQERFGNMTRVYYKEAVGAFVVFDISRSSTFEAVLKWKSDLDSKVHLPNGSPIPAVLLANKCDQNKDSSQSPSQVDQFCKEHGFAGWFETSAKDNINIEEAARFLVEKILVNHQSFPNEENDVDKIKLDQETLRAENKSQCC | 
20 | binds | GFP-Rab34 (protein, UniProt Q9BZG1 1-259) MNILAPVRRDRVLAELPQCLRKEAALHGHKDFHPRVTCACQEHRTGTVGFKISKVIVVGDLSVGKTCLINRFCKDTFDKNYKATIGVDFEMERFEVLGIPFSLQLWDTAGQERFKCIASTYYRGAQAIIIVFNLNDVASLEHTKQWLADALKENDPSSVLLFLVGSKKDLSTPAQYALMEKDALQVAQEMKAEYWAVSSLTGENVREFFFRVAALTFEANVLAELEKSGARRIGDVVRINSDDSNLYLTASKKKPTCCP | 
